The supplement of paper PMC12823440, “Inhibitors supercharge kinase turnover through native proteolytic circuits” (Nature, 2025)
Where a name gives a salt, the structure may show the parent alone. The list shows a part of the results. Hit calls seldom repeat between salt and free forms of one compound.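 Kinases were expressed as nanoluciferase fusions in K562 cells and luminescence was read every 4 h between 2 and 18 h as percent of control, DMSO set to 100% and a positive control to 0%. A time point counts as decreased when the signal drops significantly (2 sigma). The hit call is the authors' own, does not follow from the count of time points alone, and its rule is not shown.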

Sequences of proteins named here, by UniProt entry; tags and fusion partners are left off. A change or cut given only in a name is not applied to a line headed by its entry.
UniProt Q9UQM7, whole entry: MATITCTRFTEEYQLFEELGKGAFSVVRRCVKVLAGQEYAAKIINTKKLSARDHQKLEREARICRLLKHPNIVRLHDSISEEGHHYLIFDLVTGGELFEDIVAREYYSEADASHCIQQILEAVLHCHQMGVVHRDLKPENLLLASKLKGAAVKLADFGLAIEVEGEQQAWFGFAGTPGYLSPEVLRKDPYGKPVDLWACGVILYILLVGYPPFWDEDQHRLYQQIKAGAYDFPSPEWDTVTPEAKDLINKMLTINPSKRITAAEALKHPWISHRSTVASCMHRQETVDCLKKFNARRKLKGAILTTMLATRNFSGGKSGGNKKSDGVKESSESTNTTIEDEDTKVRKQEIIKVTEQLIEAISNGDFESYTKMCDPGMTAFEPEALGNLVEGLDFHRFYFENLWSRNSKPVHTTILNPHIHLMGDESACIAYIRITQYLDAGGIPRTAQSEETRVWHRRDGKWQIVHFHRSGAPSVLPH
UniProt Q13555: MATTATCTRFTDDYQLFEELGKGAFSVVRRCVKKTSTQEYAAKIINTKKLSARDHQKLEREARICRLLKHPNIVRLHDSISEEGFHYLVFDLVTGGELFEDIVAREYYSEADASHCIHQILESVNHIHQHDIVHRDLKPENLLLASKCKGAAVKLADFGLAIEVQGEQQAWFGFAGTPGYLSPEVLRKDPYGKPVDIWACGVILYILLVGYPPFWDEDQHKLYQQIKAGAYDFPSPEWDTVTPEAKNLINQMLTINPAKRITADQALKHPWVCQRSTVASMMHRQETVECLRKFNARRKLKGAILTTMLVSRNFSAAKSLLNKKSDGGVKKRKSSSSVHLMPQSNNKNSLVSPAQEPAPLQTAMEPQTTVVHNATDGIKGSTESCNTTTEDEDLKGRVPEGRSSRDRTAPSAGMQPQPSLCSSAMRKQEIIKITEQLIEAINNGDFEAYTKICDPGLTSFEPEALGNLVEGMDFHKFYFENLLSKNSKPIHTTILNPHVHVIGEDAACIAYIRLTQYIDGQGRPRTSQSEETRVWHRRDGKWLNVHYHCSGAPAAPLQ
UniProt Q15131: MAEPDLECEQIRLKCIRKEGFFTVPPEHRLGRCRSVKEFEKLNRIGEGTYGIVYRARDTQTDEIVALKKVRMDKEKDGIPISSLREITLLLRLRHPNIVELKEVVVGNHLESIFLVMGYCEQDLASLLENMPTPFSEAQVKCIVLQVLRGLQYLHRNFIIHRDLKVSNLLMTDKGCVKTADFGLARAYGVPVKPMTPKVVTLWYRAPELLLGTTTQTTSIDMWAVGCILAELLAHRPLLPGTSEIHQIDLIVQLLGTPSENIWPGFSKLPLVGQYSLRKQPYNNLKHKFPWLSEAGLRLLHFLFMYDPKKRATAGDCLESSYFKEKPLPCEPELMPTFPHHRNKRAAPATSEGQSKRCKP
UniProt Q00526: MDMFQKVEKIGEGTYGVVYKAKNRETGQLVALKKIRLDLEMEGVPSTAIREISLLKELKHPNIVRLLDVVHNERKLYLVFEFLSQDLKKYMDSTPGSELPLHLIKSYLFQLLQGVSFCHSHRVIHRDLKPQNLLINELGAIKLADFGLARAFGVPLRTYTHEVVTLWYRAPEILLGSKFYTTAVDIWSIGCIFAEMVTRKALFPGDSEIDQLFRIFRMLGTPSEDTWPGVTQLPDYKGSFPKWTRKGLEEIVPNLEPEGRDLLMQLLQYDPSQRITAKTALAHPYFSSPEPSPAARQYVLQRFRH
UniProt Q00535, whole entry, looked up: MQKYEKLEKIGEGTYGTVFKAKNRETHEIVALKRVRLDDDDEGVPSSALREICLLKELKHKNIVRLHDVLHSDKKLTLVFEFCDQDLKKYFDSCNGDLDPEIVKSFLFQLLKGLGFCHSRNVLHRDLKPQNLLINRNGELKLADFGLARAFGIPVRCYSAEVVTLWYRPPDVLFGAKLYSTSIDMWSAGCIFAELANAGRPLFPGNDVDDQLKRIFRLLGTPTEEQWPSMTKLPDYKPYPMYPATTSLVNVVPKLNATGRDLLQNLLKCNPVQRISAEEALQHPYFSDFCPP
UniProt Q00534, whole entry: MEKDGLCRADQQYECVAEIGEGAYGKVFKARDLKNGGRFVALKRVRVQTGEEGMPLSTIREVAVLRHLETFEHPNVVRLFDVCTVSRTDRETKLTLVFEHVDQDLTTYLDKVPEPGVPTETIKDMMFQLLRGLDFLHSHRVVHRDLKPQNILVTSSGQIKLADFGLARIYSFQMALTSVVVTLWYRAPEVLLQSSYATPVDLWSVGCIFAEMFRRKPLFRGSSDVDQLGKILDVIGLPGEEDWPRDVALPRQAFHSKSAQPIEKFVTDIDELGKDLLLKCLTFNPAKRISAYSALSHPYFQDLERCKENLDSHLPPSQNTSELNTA
UniProt O96017, whole entry: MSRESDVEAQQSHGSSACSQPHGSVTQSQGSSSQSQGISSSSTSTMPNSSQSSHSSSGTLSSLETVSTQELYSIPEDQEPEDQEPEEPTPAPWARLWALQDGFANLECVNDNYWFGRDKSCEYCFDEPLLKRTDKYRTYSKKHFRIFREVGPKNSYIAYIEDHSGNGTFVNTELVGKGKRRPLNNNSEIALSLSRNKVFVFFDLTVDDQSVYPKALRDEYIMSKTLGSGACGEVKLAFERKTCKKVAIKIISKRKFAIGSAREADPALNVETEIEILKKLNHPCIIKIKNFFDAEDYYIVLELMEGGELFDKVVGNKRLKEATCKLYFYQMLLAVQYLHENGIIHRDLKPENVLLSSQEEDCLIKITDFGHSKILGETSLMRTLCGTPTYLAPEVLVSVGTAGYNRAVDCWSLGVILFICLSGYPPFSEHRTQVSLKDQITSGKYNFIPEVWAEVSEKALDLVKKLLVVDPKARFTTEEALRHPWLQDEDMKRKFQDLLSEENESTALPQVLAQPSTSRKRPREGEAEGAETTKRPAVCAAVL
UniProt P41240: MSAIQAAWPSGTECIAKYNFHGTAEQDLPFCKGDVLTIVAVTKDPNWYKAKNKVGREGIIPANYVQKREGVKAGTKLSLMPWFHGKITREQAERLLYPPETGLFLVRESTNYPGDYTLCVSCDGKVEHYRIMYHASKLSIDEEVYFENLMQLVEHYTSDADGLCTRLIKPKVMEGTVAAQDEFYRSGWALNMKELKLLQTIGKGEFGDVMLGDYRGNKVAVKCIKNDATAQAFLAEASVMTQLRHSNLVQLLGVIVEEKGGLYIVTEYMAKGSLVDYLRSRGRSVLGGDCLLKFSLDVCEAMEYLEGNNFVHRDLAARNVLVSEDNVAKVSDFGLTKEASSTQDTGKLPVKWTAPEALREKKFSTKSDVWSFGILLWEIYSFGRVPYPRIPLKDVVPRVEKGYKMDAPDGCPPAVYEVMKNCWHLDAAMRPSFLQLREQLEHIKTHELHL
UniProt P48729: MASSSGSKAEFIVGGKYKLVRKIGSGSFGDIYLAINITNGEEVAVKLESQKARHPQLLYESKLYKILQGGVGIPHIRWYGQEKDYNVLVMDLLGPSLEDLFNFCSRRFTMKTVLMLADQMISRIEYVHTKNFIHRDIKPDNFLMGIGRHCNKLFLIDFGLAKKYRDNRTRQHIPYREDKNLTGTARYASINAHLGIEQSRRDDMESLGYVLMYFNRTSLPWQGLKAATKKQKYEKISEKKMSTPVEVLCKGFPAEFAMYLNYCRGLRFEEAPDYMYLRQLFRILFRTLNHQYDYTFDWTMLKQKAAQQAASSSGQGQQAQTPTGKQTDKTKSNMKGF
UniProt P48730: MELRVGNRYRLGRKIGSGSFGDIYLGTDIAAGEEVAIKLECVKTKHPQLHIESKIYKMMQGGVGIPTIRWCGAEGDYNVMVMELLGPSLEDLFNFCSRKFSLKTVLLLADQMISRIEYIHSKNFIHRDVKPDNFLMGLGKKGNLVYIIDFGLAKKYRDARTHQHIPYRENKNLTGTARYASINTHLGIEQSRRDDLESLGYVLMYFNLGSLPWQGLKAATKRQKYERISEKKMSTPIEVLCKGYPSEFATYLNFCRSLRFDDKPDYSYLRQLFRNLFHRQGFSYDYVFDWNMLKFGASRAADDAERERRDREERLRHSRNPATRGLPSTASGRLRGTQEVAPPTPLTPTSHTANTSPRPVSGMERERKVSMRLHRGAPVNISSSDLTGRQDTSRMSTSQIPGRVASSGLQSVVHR
UniProt Q08345: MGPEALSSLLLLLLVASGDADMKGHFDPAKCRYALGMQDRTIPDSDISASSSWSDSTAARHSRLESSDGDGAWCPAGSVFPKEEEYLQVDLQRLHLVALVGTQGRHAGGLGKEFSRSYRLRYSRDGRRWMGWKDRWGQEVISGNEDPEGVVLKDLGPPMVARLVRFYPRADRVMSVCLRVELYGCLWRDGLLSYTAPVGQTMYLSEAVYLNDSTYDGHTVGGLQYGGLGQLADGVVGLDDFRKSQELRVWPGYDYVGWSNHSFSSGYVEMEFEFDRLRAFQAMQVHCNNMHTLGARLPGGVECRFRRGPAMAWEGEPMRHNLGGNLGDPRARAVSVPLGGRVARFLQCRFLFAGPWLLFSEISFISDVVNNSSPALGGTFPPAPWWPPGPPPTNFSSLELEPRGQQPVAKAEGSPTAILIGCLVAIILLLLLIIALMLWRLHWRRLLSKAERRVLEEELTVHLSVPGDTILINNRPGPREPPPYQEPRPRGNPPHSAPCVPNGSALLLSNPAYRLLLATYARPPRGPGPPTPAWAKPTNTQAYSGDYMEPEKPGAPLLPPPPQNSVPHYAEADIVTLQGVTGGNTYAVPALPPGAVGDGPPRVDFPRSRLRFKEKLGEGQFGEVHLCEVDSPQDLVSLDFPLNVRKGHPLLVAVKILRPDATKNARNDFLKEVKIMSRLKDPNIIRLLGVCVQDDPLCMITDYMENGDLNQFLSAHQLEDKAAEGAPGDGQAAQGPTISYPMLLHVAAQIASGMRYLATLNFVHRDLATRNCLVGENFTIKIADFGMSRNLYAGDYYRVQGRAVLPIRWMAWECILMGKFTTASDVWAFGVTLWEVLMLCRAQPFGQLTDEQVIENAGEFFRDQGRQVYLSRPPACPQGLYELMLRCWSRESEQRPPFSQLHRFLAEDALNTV
UniProt Q9Y463, whole entry, looked up: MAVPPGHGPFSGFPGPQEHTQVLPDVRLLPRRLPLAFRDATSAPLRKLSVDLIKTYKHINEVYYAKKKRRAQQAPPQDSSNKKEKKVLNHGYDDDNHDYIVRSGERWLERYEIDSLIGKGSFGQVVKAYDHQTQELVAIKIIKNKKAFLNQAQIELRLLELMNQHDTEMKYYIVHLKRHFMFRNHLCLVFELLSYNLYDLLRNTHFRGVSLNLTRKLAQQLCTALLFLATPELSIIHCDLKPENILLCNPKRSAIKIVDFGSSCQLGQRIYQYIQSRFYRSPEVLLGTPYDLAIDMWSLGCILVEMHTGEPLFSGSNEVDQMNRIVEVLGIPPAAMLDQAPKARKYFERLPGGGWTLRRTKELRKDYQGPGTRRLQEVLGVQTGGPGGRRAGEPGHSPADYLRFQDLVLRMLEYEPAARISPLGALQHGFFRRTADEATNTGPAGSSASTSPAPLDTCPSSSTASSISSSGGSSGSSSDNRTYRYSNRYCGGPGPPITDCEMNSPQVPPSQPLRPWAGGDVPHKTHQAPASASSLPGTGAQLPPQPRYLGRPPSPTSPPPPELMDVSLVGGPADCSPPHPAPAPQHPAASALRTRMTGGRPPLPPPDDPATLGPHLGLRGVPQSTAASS
UniProt Q92630: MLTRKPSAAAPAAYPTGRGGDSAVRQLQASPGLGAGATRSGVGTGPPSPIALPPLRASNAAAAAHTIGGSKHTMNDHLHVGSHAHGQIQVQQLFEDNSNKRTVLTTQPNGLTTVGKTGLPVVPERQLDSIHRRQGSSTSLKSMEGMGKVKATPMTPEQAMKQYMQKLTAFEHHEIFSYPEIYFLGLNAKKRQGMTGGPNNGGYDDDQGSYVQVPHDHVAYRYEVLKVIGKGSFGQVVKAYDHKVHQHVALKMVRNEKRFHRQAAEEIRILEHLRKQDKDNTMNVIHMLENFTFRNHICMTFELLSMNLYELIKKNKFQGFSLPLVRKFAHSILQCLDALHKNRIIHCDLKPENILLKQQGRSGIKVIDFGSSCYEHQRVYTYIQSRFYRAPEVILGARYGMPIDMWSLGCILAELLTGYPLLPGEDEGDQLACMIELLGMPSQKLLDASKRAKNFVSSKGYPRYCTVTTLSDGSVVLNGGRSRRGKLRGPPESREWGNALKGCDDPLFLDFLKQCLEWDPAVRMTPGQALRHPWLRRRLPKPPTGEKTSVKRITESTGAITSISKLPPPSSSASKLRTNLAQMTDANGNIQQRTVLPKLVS

Legend:
Assay in all cases: number of time points (of 5) at which kinase-Nluc abundance scored as decreased, DMSO-normalised (count); higher = more persistent destabilization
Settings in all cases: K562; 2-18 h
CAMK2A = CAMK2A (UniProt Q9UQM7)
CAMK2G = CAMK2G (UniProt Q13555)
CDK10 = CDK10 (UniProt Q15131)
CDK2 = CDK2 (UniProt P24941)
CDK3 = CDK3 (UniProt Q00526)
CDK5 = CDK5 (UniProt Q00535)
CDK6 = CDK6 (UniProt Q00534)
CHEK2 = CHEK2 (UniProt O96017)
CSF1R = CSF1R (UniProt P07333)
CSK = CSK (UniProt P41240)
CSNK1A1 = CSNK1A1 (UniProt P48729)
CSNK1D = CSNK1D (UniProt P48730)
DDR1 = DDR1 (UniProt Q08345)
DYRK1B = DYRK1B (UniProt Q9Y463)
DYRK2 = DYRK2 (UniProt Q92630)
EGFR = EGFR (UniProt P00533)
EGFR_G719S = EGFR_G719S (UniProt P00533)
EGFR_G719S_T790M = EGFR_G719S_T790M (UniProt P00533)
EGFR_L718V = EGFR_L718V (UniProt P00533)
EGFR_L858R = EGFR_L858R (UniProt P00533)

Measured: number of time points

COc1cc2cc(Oc3ccc4ccc(=O)oc4c3)c(=O)oc2cc1O [Daphnoretin] (10 µM)
2: CSNK1A1
0: all other assays above

CC(C)n1ncnc1-c1cn2c(n1)-c1ccc(O[C@@H](C)C(N)=O)cc1OCC2 (10 µM)
0: all assays above

NCCOc1ccc(Cl)cc1C(=O)Nc1ccc([N+](=O)[O-])cc1Cl [HJC0152 hydrochloride] (2 µM)
0: all assays above

Cc1nn(C)cc1-c1nc2c(N3CCN(Cc4ccc(Cl)cc4)CC3)c(Cl)cnc2[nH]1 (10 µM)
0: all assays above

COc1cc2nccc(Oc3ccc(NC(=O)c4cn(C(C)C)c(=O)n(-c5ccc(F)cc5)c4=O)cc3F)c2cc1OC (0.5 µM)
2: DDR1 | DYRK2
1: CHEK2 | CSF1R | CSNK1A1 | EGFR | EGFR_G719S
0: all other assays above

CCC(=O)Nc1cccc(Oc2nc(Nc3ccc(N4CCN(C)CC4)cc3OC)ncc2Cl)c1 (10 µM)
0: all assays above

Cc1cc(C(=O)NC(C)(C)C)cc(C#Cc2ccc3c4c(oc3c2)C(C)(C)c2cc(NS(C)(=O)=O)ccc2C4=O)n1 (10 µM)
0: all assays above

CCCCCC(=O)N[C@@H](Cc1ccc(O)cc1)C(=O)OC (10 µM)
0: all assays above

O=C(c1cccc(Cl)c1F)N1CCN(Cc2cccc(Nc3nccs3)n2)CC1 (2.5 µM)
0: all assays above

Cn1c2cc([S+](C)[O-])sc2c2cnn(Cc3cccc(N)c3)c(=O)c21 (stereo not given) (2.5 µM)
0: all assays above

Already shown: 2 of the compounds above.
CCC(=O)Nc1cccc(Oc2nc(Nc3ccc(N4CCN(C)CC4)cc3OC)ncc2Cl)c1 (10 µM)
0: all assays above

Cc1cc(C(=O)NC(C)(C)C)cc(C#Cc2ccc3c4c(oc3c2)C(C)(C)c2cc(NS(C)(=O)=O)ccc2C4=O)n1 (10 µM)
0: all assays above

Carrying on:

CCN1CCN(Cc2cnc(Nc3cc(-c4cc(F)c5nc(C)n(C(C)C)c5c4)c(F)cn3)nc2)CC1 (10 µM)
3: EGFR_G719S
0: all other assays above

Nc1nc2c(nc(Br)n2[C@@H]2O[C@@H]3COP(=O)(O)O[C@H]3[C@H]2O)c(=O)[nH]1 [8-Bromo-cGMP (sodium)] (10 µM)
1: CDK6
0: all other assays above

CCn1c(-c2nonc2N)nc2c(C#CC(C)(C)O)ncc(OC[C@H]3CCCNC3)c21 (10 µM)
1: CSNK1A1
0: all other assays above

O=C(Nc1cc(Cl)cc2c1[nH]c1cnccc12)c1cccnc1 (10 µM)
0: all assays above

Cc1cc([C@@H](C)Nc2ccccc2C(=O)O)c2nc(N3CCOCC3)cc(=O)n2c1 (10 µM)
0: all assays above

C=CC(=O)Nc1ccc(C(=O)Nc2[nH]nc3c2CN(C(=O)N[C@H](CN(C)C)c2ccccc2)C3(C)C)cc1 (10 µM)
1: CDK2 | CDK6 | CSF1R | CSNK1D | DYRK1B
3: CAMK2A | CSNK1A1
4: DYRK2
2: DDR1 | EGFR | EGFR_G719S | EGFR_G719S_T790M | EGFR_L718V | EGFR_L858R
0: all other assays above

COc1cc2c(cc1O)C[C@H]1c3cc(O)c(OC)cc3CC[N@@+]1(C)C2 [Phellodendrine] (10 µM)
0: all assays above
